Measurements reported in PubChem BioAssay AID1159584 (Peter MacCallum Cancer Centre, 2016)
Aim: 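Genes whose loss is lethal only together with E-cadherin loss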 (primary screen). System: human MCF10A breast epithelial cells, parental and CDH1-null. Reagent: siRNA against human genes. Measurement: 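ATP luminescence (CellTiter-Glo) viability per line relative to mean mock wells over all plates, and the ratio of CDH1-null to parental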. Reading the numbers: CDH1-null / parental viability ratio: higher = CDH1-null cells survive relatively better than parental.
Here is an unselected part of about 18,000 reagents. Not all columns of the deposit are shown. No sequences are given here. Not given: the amount of reagent, the time to read-out.

CDH1-null / parental viability ratio | Gene
1.13 | CCL8
0.76 | CRY1
0.81 | LAG3
0.91 | UBR7
1 | HFM1
0.75 | CXCR3
1.11 | PITPNM1
0.91 | LCN2
0.89 | SPATA31A7
1.52 | CNTNAP4
1.31 | POLR2A
1.02 | AMDHD1
1.37 | ACP2
1.09 | MX2
1.03 | PNPLA5
1 | PDGFB
0.96 | TM4SF18
0.83 | KLHL18
1.17 | SPAG8
1.27 | KCNS3
1.21 | CALML4
1.05 | TMEM150A
1.02 | PNPLA4
1.24 | FAM3C
0.94 | CDCP2
1.17 | ARL13A
1.07 | SLC22A1
1.03 | PPP2CB
1.29 | GNA15
1.05 | CRISPLD2
1 | PGBD5
1.21 | ZBED1
1.27 | STYK1
1.21 | PKD1L2
1.2 | TNFRSF10C
1.11 | ACSL3
0.96 | NARS2
0.86 | S100A13
0.99 | RTP3
0.83 | TSLP
0.86 | BARX2
1 | DNAJC30
1.2 | KIF27
1.32 | ADH6
1 | TOR1A
1.05 | CMPK1
1.2 | TSPYL2
1.13 | OR10C1
1.14 | APOOL
0.8 | GDPGP1
0.79 | GNG5
0.68 | SASH1
1.35 | CACNA1F
0.92 | NUSAP1
1.46 | RPS29
0.74 | PRRT3
1.06 | MYO10
0.84 | SUMO1
0.92 | DIMT1
1.1 | ASB13
1.33 | MMP7
0.89 | ADIG
0.98 | SHOX
1.33 | TMEM260
1.19 | UGT2B17
0.73 | SAP18
0.91 | ONECUT2
0.62 | RBM44

8 entries already listed, sorted by “CDH1-null / parental viability ratio”, ascending:
CDH1-null / parental viability ratio | Gene
0.86 | S100A13
0.96 | NARS2
1 | PGBD5
1.11 | ACSL3
1.2 | TNFRSF10C
1.21 | ZBED1
1.21 | PKD1L2
1.27 | STYK1
